This is one part of the list. The data scatter; read single values as rough.
How the values were obtained:
[1] = compound: ClCC(=O)N[C@@H]1CCCc2ccccc12; assay: log2 mean competition ratio of IA-DTB cysteine labelling (DMSO/compound) (log2 ratio); higher = stronger cysteine engagement by compound; conditions: treatment time: 4 h, cell line lysate: HEK293T
Procedure: (§1)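 IA-DTB competitive cysteine chemoproteomics in HEK293T RIPA lysate. Lysates were treated with compound 29 or 30 at 50 or 200 µM for 4 h, then IA-DTB (500 µM, 1 h), trypsin-digested, NeutrAvidin-enriched and analysed by diaPASEF. Competition ratio = intensity DMSO / intensity compound (n=4 treated, n=64 DMSO); binding: mean log2 CR ≥ 1 and p ≤ 0.05 plus QC filters. Target is the cysteine site.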

Amino acid sequences for entries named in this document (tags omitted). A change or cut given only in a name is not applied to a line headed by its entry. Residues count along the entry.
UniProt Q99496, 162-196: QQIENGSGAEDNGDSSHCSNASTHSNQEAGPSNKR
UniProt O75116, 239-263: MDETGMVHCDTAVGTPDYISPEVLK
UniProt Q8N122: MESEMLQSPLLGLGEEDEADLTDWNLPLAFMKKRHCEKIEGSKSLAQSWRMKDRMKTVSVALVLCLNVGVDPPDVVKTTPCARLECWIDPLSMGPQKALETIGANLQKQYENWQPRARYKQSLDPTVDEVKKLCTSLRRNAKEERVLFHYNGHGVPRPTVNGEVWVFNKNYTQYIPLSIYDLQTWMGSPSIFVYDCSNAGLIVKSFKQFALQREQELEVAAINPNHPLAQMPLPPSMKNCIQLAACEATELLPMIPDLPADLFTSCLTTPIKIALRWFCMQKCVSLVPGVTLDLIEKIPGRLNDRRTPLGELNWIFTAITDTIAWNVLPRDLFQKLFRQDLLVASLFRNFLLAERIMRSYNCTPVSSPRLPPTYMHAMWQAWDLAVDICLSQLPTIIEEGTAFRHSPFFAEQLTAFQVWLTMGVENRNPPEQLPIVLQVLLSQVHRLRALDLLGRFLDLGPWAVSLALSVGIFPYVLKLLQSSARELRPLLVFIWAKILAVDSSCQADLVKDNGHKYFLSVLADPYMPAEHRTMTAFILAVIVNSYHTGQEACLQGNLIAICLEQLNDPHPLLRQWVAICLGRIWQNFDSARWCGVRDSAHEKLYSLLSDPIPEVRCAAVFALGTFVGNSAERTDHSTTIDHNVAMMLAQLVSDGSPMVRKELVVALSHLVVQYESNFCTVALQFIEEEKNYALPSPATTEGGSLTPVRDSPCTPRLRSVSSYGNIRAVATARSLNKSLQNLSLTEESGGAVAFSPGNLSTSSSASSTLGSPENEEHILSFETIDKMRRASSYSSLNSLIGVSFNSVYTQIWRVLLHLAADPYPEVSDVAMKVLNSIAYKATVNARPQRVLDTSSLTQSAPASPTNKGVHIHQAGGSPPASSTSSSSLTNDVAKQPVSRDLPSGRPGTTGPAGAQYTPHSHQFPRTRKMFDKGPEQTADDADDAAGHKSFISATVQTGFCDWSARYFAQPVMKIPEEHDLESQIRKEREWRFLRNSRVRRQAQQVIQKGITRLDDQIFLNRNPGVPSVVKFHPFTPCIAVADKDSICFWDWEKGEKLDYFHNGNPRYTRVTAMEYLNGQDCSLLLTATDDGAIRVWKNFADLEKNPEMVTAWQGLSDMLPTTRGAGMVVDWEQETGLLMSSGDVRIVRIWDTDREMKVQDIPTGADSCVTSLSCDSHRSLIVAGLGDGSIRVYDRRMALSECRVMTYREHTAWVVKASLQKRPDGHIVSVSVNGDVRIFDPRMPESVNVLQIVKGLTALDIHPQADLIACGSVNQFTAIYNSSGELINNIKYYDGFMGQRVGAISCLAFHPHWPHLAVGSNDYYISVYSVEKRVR
UniProt Q9NZJ4: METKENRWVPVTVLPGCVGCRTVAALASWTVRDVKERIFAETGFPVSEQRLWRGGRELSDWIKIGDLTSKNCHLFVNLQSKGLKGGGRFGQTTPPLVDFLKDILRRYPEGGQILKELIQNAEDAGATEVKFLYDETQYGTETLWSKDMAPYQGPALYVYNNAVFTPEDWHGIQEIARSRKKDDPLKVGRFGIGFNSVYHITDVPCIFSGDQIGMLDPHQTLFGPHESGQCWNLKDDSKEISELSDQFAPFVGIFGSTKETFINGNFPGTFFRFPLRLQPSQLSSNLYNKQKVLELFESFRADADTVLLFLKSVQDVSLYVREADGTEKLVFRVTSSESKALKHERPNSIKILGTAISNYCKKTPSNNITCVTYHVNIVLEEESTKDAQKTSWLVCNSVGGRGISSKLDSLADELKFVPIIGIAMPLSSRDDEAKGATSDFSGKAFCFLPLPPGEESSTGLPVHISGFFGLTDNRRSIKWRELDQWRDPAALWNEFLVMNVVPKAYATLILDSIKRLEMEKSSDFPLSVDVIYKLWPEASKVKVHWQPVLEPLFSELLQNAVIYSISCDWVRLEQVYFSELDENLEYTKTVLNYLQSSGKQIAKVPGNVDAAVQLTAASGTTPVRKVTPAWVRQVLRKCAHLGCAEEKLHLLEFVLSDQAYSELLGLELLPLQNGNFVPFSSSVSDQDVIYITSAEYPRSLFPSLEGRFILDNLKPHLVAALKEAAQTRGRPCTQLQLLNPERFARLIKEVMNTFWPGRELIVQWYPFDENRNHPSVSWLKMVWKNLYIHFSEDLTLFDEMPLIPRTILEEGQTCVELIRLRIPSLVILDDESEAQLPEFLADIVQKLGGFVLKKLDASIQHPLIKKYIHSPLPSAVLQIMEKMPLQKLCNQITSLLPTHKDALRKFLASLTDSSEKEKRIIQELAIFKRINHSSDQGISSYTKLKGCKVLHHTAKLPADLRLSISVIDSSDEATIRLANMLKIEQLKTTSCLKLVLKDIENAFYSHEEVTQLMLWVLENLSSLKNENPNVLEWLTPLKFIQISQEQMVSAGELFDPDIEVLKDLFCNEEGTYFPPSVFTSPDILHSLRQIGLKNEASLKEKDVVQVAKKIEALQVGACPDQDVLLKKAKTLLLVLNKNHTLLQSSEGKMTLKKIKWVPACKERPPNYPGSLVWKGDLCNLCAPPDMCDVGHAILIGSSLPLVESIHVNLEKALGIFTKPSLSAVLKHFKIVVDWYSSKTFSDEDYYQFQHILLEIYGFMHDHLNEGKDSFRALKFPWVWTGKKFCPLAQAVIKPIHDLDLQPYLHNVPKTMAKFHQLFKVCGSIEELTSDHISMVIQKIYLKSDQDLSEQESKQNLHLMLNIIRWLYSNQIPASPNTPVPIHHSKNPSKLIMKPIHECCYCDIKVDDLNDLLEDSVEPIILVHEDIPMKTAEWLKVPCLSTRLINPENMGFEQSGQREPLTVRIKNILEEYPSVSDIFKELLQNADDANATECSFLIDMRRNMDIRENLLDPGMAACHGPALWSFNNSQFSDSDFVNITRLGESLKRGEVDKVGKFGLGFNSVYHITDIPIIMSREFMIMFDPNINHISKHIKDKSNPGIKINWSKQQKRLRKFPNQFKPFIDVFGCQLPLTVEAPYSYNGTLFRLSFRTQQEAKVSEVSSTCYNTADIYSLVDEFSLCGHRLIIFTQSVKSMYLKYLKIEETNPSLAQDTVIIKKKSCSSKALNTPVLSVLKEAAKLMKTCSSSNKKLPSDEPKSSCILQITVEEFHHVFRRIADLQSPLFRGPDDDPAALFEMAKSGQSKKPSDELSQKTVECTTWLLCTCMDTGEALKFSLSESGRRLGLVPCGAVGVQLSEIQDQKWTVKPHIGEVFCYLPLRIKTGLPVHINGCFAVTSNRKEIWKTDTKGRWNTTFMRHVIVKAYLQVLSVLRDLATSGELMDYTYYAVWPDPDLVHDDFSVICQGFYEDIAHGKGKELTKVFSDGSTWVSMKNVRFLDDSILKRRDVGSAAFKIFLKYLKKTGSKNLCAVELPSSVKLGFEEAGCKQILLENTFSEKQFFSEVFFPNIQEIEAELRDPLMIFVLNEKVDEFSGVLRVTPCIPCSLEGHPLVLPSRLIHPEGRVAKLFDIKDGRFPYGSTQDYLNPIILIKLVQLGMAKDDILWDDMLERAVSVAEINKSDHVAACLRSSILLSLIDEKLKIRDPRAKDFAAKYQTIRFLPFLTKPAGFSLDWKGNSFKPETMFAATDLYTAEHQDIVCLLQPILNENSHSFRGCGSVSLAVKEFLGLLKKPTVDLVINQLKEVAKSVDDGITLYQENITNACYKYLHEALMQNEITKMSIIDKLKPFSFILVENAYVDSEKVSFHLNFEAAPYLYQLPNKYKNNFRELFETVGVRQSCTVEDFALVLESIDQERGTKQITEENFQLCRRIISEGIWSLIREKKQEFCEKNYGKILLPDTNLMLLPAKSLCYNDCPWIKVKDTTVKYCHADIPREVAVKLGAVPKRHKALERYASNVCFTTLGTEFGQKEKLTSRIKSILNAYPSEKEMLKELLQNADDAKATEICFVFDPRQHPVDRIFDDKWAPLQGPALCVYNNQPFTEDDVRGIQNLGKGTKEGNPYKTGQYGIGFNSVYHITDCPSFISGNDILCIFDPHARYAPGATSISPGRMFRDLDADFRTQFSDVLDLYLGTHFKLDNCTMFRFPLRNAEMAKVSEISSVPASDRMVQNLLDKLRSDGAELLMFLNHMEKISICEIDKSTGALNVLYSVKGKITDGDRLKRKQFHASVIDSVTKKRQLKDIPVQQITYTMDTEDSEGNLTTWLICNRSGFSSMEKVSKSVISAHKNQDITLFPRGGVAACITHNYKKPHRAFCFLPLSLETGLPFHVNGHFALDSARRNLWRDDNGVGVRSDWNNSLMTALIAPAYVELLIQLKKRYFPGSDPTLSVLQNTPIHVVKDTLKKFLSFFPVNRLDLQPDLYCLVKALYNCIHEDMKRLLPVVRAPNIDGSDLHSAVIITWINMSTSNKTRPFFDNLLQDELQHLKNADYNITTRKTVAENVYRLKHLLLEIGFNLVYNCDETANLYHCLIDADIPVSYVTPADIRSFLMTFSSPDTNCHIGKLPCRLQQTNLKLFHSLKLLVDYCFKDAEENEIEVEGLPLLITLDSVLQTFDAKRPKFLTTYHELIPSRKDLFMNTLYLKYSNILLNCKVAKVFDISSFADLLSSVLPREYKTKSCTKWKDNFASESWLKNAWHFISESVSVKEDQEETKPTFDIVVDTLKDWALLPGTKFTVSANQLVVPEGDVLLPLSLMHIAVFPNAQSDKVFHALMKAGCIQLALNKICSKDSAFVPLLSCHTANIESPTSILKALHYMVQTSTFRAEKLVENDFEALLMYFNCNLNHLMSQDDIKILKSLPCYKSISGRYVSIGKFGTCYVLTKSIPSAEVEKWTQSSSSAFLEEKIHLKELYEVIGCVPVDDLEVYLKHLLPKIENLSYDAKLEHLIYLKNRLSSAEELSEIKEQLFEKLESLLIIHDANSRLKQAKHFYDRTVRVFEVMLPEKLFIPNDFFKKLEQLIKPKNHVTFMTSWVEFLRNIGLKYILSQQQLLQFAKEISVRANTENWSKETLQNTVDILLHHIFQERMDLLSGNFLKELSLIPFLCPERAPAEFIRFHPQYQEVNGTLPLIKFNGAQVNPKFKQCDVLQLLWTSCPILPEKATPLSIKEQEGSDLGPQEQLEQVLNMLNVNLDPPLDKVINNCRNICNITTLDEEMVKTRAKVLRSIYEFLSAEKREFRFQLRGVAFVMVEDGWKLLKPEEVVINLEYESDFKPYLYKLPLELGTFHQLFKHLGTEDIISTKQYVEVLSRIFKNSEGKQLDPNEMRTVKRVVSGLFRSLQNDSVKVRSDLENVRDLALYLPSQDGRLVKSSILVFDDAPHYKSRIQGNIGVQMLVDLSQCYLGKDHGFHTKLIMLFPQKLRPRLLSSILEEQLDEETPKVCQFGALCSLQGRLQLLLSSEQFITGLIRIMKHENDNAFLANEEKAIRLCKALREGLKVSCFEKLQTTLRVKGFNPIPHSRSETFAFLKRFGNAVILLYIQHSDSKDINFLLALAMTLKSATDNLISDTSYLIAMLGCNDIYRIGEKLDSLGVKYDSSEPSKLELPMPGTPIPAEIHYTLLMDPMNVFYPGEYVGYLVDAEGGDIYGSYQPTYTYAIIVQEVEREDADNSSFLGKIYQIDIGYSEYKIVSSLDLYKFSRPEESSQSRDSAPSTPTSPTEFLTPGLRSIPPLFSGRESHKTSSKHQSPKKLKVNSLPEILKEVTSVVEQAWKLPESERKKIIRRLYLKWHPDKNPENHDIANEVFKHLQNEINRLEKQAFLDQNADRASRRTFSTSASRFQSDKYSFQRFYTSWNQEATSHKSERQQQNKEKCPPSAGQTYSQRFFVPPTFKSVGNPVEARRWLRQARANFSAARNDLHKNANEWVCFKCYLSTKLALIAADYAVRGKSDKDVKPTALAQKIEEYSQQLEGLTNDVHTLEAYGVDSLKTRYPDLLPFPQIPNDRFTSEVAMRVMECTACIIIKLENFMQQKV
UniProt O00442, 61-83: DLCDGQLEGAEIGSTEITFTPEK
UniProt Q9UBF6, whole entry, looked up: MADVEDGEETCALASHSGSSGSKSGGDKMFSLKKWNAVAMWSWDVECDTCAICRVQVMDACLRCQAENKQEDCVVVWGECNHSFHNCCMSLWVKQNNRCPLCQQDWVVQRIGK
UniProt P10155, 288-307: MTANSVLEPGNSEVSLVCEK
UniProt Q9HA92: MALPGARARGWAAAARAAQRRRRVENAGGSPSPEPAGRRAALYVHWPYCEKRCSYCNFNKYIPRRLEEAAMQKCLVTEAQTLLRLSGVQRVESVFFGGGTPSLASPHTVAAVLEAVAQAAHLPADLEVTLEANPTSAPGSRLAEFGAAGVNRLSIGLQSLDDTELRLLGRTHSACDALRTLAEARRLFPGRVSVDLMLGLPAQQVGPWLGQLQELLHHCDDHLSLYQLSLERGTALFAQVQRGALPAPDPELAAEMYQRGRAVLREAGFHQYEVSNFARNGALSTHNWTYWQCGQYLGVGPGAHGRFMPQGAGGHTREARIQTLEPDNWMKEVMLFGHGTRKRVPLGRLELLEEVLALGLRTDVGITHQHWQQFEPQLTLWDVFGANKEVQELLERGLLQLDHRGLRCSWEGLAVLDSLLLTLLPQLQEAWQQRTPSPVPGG

[2] = compound: ClCC(=O)N[C@H]1CCCc2ccccc12; assay: as above; conditions: treatment time: 4 h, cell line lysate: HEK293T
Procedure: as §1

| Target | log2 mean competition ratio ([1]; 50 µM) | log2 mean competition ratio ([1]; 200 µM) | log2 mean competition ratio ([2]; 50 µM) | log2 mean competition ratio ([2]; 200 µM) |
| --- | --- | --- | --- | --- |
| RNF126 C32 (UniProt Q9BV68) | -0.391 | -0.157 |  |  |
| RPAP2 C277 (UniProt Q8IXW5) | -0.213 |  |  |  |
| RNF31 C572 (UniProt Q96EP0) | -0.104 | 0.149 |  |  |
| RNF2 C179 (UniProt Q99496) | -0.439 | -0.0689 |  |  |
| RNF168 C348 (UniProt Q8IYW5) | 0.0717 | 0.0176 |  |  |
| RPL18A C22 (UniProt Q02543) | 0.0696 | -0.11 |  |  |
| ROCK2 C247 (UniProt O75116) | -0.154 | -0.198 |  |  |
| RTKN C78 (UniProt Q9BST9) | -0.0279 | -0.153 |  |  |
| RPTOR C86 (UniProt Q8N122) | -0.0453 | -0.346 |  |  |
| RUFY1 C8 (UniProt Q96T51) | -0.189 | -0.037 |  |  |
| RPL7A C199 (UniProt P62424) | 0.0472 | -0.214 |  |  |
| SACS C395 (UniProt Q9NZJ4) | 0.16 | 0.248 |  |  |
| RNF213 C4258 | -0.0119 | 0.29 |  |  |
| RPAP2 C288 (UniProt Q8IXW5) | -0.33 | 0.287 |  |  |
| RND3 C34 | -0.169 | 0.00973 |  |  |
| RPL36A;RPL36AL C88;(C88) | 0.344 | 0.00222 |  |  |
| RPS3 C119 | 0.418 | -0.548 |  |  |
| RUFY1 C320 (UniProt Q96T51) | -0.191 | -0.16 |  |  |
| RTKN C122 (UniProt Q9BST9) | -0.179 | 0.108 |  |  |
| SACS C732 (UniProt Q9NZJ4) | 0.119 | 0.445 |  |  |

A portion of the results above, as a working copy:

| Target | log2 mean competition ratio ([1]; 50 µM) | log2 mean competition ratio ([1]; 200 µM) | log2 mean competition ratio ([2]; 50 µM) | log2 mean competition ratio ([2]; 200 µM) |
| --- | --- | --- | --- | --- |
| RPTOR C86 (UniProt Q8N122) | -0.0453 | -0.346 |  |  |
| RUFY1 C8 (UniProt Q96T51) | -0.189 | -0.037 |  |  |

(next part)

| Target | log2 mean competition ratio ([1]; 50 µM) | log2 mean competition ratio ([1]; 200 µM) | log2 mean competition ratio ([2]; 50 µM) | log2 mean competition ratio ([2]; 200 µM) |
| --- | --- | --- | --- | --- |
| RPL3 C157 (UniProt P39023) | 0.442 | -0.236 |  |  |
| RTCA C153 (UniProt O00442) | 0.0243 | 0.134 |  |  |
| RRM2 C202 (UniProt P31350) | 0.0987 | -0.164 |  |  |
| RNF8 C181 (UniProt O76064) | -0.071 | 0.0109 |  |  |
| RPAP1 C618 (UniProt Q9BWH6) | 0.388 | 0.454 |  |  |
| RRAS C70 (UniProt P10301) | -0.221 | 0.0433 |  |  |
| ROCK1 C231 (UniProt Q13464) | -0.263 | 0.0851 |  |  |
| RXRB C247 (UniProt P28702) | -0.197 | 0.0111 |  |  |
| ROCK2 C804 (UniProt O75116) | -0.224 | -0.331 |  |  |
| RPS6KA3 C436 (UniProt P51812) | -0.121 | -0.213 |  |  |
| RNF7 C61 (UniProt Q9UBF6) | 0.484 | 0.12 |  |  |
| SACS C2976 (UniProt Q9NZJ4) | 0.522 | -0.105 |  |  |
| RTEL1 C20 (UniProt Q9NZ71) | 0.137 | -0.15 |  |  |
| RPP30 C87 | 0.029 | 0.262 |  |  |
| RPTOR C283 (UniProt Q8N122) | 0.219 | 0.142 |  |  |
| RNF213 C3261 | -0.133 | -0.253 |  |  |
| RPL3 C336 (UniProt P39023) | 0.201 | -0.41 |  |  |
| RRAS2 C183 (UniProt P62070) | -0.0487 | 0.508 |  |  |
| RO60 C305 (UniProt P10155) | -0.277 | 0.0135 |  |  |
| RNF213 C4348 | 0.0252 | 0.0661 | -0.159 | 0.0182 |

| Target | log2 mean competition ratio ([1]; 50 µM) | log2 mean competition ratio ([1]; 200 µM) | log2 mean competition ratio ([2]; 50 µM) | log2 mean competition ratio ([2]; 200 µM) |
| --- | --- | --- | --- | --- |
| RSAD1 C175 (UniProt Q9HA92) | 0.175 | 0.897 |  |  |
| RPL18A C109 (UniProt Q02543) | 0.0699 | -0.251 |  |  |
| RNF26 C395 (UniProt Q9BY78) | 0.0244 | -0.379 |  | 0.247 |
| SACS C2182 (UniProt Q9NZJ4) | -0.0966 | -0.191 |  |  |
| ROCK1 C1300 (UniProt Q13464) | -0.369 | 0.25 |  |  |
| RPL27A C144 (UniProt P46776) | -0.0423 | -0.12 |  |  |
| RRP1B C155 (UniProt Q14684) | 0.255 | -0.476 | 0.638 | -0.581 |
| RNF213 C856 | -0.145 | -0.102 |  |  |
| RNF40 C69 (UniProt O75150) | -0.234 | 0.157 | -0.0576 | 0.172 |
| ROCK2 C607 (UniProt O75116) | -0.155 | -0.107 | 0.00578 | -0.101 |
| RUFY1 C184 (UniProt Q96T51) | -0.08 | -0.0413 |  |  |
| RPRD2 C222 (UniProt Q5VT52) | -0.0466 | 0.0893 |  |  |
| RPS6 C12 (UniProt P62753) | 0.375 | -0.0735 | 0.399 | 0.0526 |
| RPL36A;RPL36AL C77;(C77) | -0.524 | -0.00626 |  |  |
| RPRD1B C100 (UniProt Q9NQG5) | -0.336 | 0.145 |  |  |
| RRP12 C31 (UniProt Q5JTH9) | 0.206 | 0.662 |  |  |
| RTCA C63 (UniProt O00442) | -0.00895 | 0.0877 |  |  |
| RNF113A C202 (UniProt O15541) | 0.11 | 0.29 |  |  |
| RNMT C73 (UniProt O43148) | -0.234 | 0.027 |  |  |
| RUSC2 C520 (UniProt Q8N2Y8) | 0.242 | 0.0833 |  |  |
